Test results published in EP0552417B1 (priority 1991, dated 1993).
Strings that start with PEPTIDE1 are HELM notation: dots part the residues, brackets hold end groups and non-standard residues. Non-standard residues stand in square brackets, D forms with d. *: point of attachment. Hyp = O=C(O)[C@@H]1C[C@@H](O)CN1; OPac = O=C(CO*)c1ccccc1; Boc = CC(C)(C)OC(=O)*; OBn = c1ccc(CO*)cc1; Bn = c1ccc(C*)cc1

Test: general procedure: solution-phase peptide synthesis; DCC/HONB (ONB active esters)
Settings: for cyclisation yield: cyclisation step

cyclo[-D-Asp-Trp-Asp-D-γMeLeu-Leu-D-Trp-]
cyclisation yield: 51.5%

Boc-D-Asp(OBzl)-Asn(CH2Ph)-Asp(OBzl)-D-Leu-Leu-OPac
step yield (coupling step): 93.9%

PEPTIDE1{[dD].W.L.[dL].L.[dW]}$PEPTIDE1,PEPTIDE1,6:R2-1:R1$$$V2.0
step yield (late stage modification step): 97.5%

Boc-Orn(COCH2-Ind)-Asp(OBzl)-D-Leu-Leu-D-Trp-D-Asp(OBzl)-OPac
step yield (coupling step): 87.4%

Boc-L[dW][dD](OBn)[Hyp](Bn)D(OBn)-OPac
step yield (coupling step): 94.8%

cyclo([dD](OBn)[Hyp](Bn)D(OBn)[dL]L[dW])
cyclisation yield: 82.6%

PEPTIDE1{[dD].D.L.[dL].L.[dW]}$PEPTIDE1,PEPTIDE1,6:R2-1:R1$$$V2.0
step yield (coupling step): 94.9%
